Test results from PubChem BioAssay (NCATS).
This list was built around the results that the source calls inconclusive (neither active nor inactive); the mix of calls is not that of the screen. For some of these results: Where the call is inconclusive, the potency comes from a doubtful curve fit. Active and inactive are the calls of the source. The call rests on the fitted dose curve; in most records, active means well fitted cell-killing curve with a large enough effect; inconclusive means small, poorly fitted or top-dose-only effect, or effect the other way; inactive means no such curve, though single readings can be large or run the other way.

What was measured:
[1] = Quantitative High-Throughput drug screen in 47 multiple myeloma cell lines against the NCATS MIPE library collection: LP1_DSMZ cell viability assay (AID 1918982); further: nearly all actives have a fitted effect of over 35% in size; further: potency means the concentration at half of the fitted maximal effect
Method in brief: (§1)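 ATP-based luminescence (CellTiter-Glo, 5 min RT incubation) quantified surviving cells following two days' treatment with MIPE 4.0 agents at 37 °C, 5% CO2.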

[2] = Quantitative High-Throughput drug screen in 47 multiple myeloma cell lines against the NCATS MIPE library collection: KMS28PE_JCRB cell viability assay (AID 1918983); further: nearly all actives have a fitted effect of over 35% in size; further: potency means the concentration at half of the fitted maximal effect
Method in brief: as §1

[3] = Quantitative High-Throughput drug screen in 47 multiple myeloma cell lines against the NCATS MIPE library collection: L363_DSMZ cell viability assay (AID 1918984); conditions: L363 myeloma viability, CellTiter-Glo ATP luminescence, 48 h; viability (% of control): at 45.8 µM (top of the series); further: nearly all actives have a fitted effect of over 40% in size; further: potency means the concentration at half of the fitted maximal effect
Method in brief: as §1

[4] = Quantitative High-Throughput drug screen in 47 multiple myeloma cell lines against the NCATS MIPE library collection: KMS34_JCRB cell viability assay (AID 1918985); further: nearly all actives have a fitted effect of over 40% in size; further: potency means the concentration at half of the fitted maximal effect
Method in brief: as §1

[5] = Quantitative High-Throughput drug screen in 47 multiple myeloma cell lines against the NCATS MIPE library collection: OCIMY5_PLB cell viability assay (AID 1918988); further: potency means the concentration at half of the fitted maximal effect; nearly all actives have a fitted effect of over 65% in size
Method in brief: as §1

[6] = Quantitative High-Throughput drug screen in 47 multiple myeloma cell lines against the NCATS MIPE library collection: SKMM1_PLB cell viability assay (AID 1919863); conditions: SKMM1 myeloma viability, CellTiter-Glo ATP, 48 h; viability: active compounds read low; further: nearly all actives have a fitted effect of over 35% in size; further: potency means the concentration at half of the fitted maximal effect
Method in brief: as §1

[7] = Quantitative High-Throughput drug screen in 47 multiple myeloma cell lines against the NCATS MIPE library collection: U266_ATCC cell viability assay (AID 1919864); conditions: U266 myeloma viability, CellTiter-Glo ATP luminescence, 48 h; viability (% of DMSO control): at 45.8 µM (top of the series); further: potency means the concentration at half of the fitted maximal effect; nearly all actives have a fitted effect of over 35% in size
Method in brief: as §1

[8] = Quantitative High-Throughput drug screen in 47 multiple myeloma cell lines against the NCATS MIPE library collection: XG6_PLB cell viability assay (AID 1919865); conditions: XG6 myeloma viability, CellTiter-Glo ATP luminescence, 48 h; viability (% of control): at 45.8 µM (top of the series); further: nearly all actives have a fitted effect of over 40% in size; further: potency means the concentration at half of the fitted maximal effect;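 on viability (% of control): 100% = DMSO-only wells and 0% = media-only wells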
Method in brief: as §1

[9] = Quantitative High-Throughput drug screen in 47 multiple myeloma cell lines against the NCATS MIPE library collection: XG1_PLB cell viability assay (AID 1919866); conditions: CellTiter-Glo ATP, 48 h; viability: at 45.8 µM (top of the series); further: nearly all actives have a fitted effect of over 35% in size; further: potency means the concentration at half of the fitted maximal effect
Method in brief: as §1

[10] = Quantitative High-Throughput drug screen in 47 multiple myeloma cell lines against the NCATS MIPE library collection: UTMC2_PLB cell viability assay (AID 1919868); conditions: CellTiter-Glo ATP luminescence, 48 h; viability (% of DMSO control): at 45.8 µM (top of the series); further: nearly all actives have a fitted effect of over 55% in size; further: potency means the concentration at half of the fitted maximal effect;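 on viability (% of DMSO control): 100% = DMSO-only wells and 0% = media-only wells without cells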
Method in brief: as §1

[11] = Quantitative High-Throughput drug screen in 47 multiple myeloma cell lines against the NCATS MIPE library collection: PE2_PLB cell viability assay (AID 1919869); conditions: PE2_PLB myeloma cells viability, ATP luminescence, 48 h; viability (% of control): at 45.8 µM (top of the series); further: nearly all actives have a fitted effect of over 35% in size; further: potency means the concentration at half of the fitted maximal effect;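 on viability (% of control): 100% = DMSO-only wells and 0% = cell-free media-only wells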
Method in brief: as §1

[12] = Quantitative High-Throughput drug screen in 47 multiple myeloma cell lines against the NCATS MIPE library collection: PCM6_Riken cell viability assay (AID 1919870);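 further: 100% = DMSO-only wells and 0% = media-only wells; nearly all actives have a fitted effect of over 30% in size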
Method in brief: as §1

[13] = Quantitative High-Throughput drug screen in 47 multiple myeloma cell lines against the NCATS MIPE library collection: RPMI8226_ATCC cell viability assay (AID 1919871); conditions: RPMI8226 myeloma viability, CellTiter-Glo ATP luminescence, 48 h; viability (% of control): at 45.8 µM (top of the series); further: nearly all actives have a fitted effect of over 30% in size; further: potency means the concentration at half of the fitted maximal effect
Method in brief: as §1

[14] = Quantitative High-Throughput drug screen in 47 multiple myeloma cell lines against the NCATS MIPE library collection: OPM2_DSMZ cell viability assay (AID 1919872); further: nearly all actives have a fitted effect of over 30% in size; further: potency means the concentration at half of the fitted maximal effect
Method in brief: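 Approved and investigational drugs from MIPE 4.0 were added by pin tool to 500 cells per well. After 48 hours at 37C, ATP-based CellTiter-Glo luminescence indicated remaining viability.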

[15] = Quantitative High-Throughput drug screen in 47 multiple myeloma cell lines against the NCATS MIPE library collection: KMS11_JCRBsus cell viability assay (AID 1919873); further: potency means the concentration at half of the fitted maximal effect; nearly all actives have a fitted effect of over 50% in size
Method in brief: as §1

[16] = Quantitative High-Throughput drug screen in 47 multiple myeloma cell lines against the NCATS MIPE library collection: KMS28BM_JCRB cell viability assay (AID 1919874); further: nearly all actives have a fitted effect of over 35% in size; further: potency means the concentration at half of the fitted maximal effect
Method in brief: as §1

[17] = Quantitative High-Throughput drug screen in 47 multiple myeloma cell lines against the NCATS MIPE library collection: OCIMY7_PLB cell viability assay (AID 1918987); conditions: OCI-MY7 myeloma viability, CellTiter-Glo ATP, 48 h; viability (% of DMSO): at 45.8 µM (top of the series); further: nearly all actives have a fitted effect of over 65% in size; further: potency means the concentration at half of the fitted maximal effect
Method in brief: as §1

[18] = Quantitative High-Throughput drug screen in 47 multiple myeloma cell lines against the NCATS MIPE library collection: OPM1_PLB cell viability assay (AID 1918989); further: potency means the concentration at half of the fitted maximal effect; nearly all actives have a fitted effect of over 40% in size
Method in brief: as §1

[19] = Quantitative High-Throughput drug screen in 47 multiple myeloma cell lines against the NCATS MIPE library collection: VP6_DJ cell viability assay (AID 1919867); conditions: ATP luminescence, 48 h; viability (% of DMSO): at 45.8 µM (top of the series); further: nearly all actives have a fitted effect of over 40% in size; further: potency means the concentration at half of the fitted maximal effect;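 on viability (% of DMSO): 100% = DMSO-only wells and 0% = wells with media alone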
Method in brief: as §1

CC(=O)Nc1ccc(OC[C@](C)(O)C(=O)Nc2ccc([N+](=O)[O-])c(C(F)(F)F)c2)cc1
inconclusive: Potency [1] 0.003 µM [rising, full curve] | Potency [2] 0.0019 µM [rising, full curve] | Potency [3] 3.72 µM [rising, partial curve, poor fit] | Potency [4] 0.0047 µM [rising, full curve, poor fit] | Potency [5] 0.0017 µM [rising, full curve] | Potency [6] 0.0033 µM [rising, full curve, poor fit] | Potency [7] 33.2 µM [cytotoxic, single point] | Potency [8] 18.7 µM [cytotoxic, partial curve, poor fit] | Potency [11] 20.9 µM [cytotoxic, partial curve, poor fit] | Potency [13] 0.0023 µM [rising, full curve, poor fit] | Potency [14] 0.0017 µM [rising, full curve] | Potency [15] 33.2 µM [cytotoxic, single point] | Potency [16] 33.2 µM [cytotoxic, single point]
inactive: Potency [9] | Potency [10] | Potency [12]

CC(=Cc1csc(C)n1)[C@@H]1C[C@H]2O[C@]2(C)CCC[C@H](C)[C@@H](O)[C@@H](C)C(=O)C(C)(C)[C@@H](O)CC(=O)O1
inconclusive: Potency [2] 20.9 µM [rising, single point] | viability (% of control) [3] 35.6% [cytotoxic] | Potency [5] 37.2 µM [rising, partial curve, poor fit] | Potency [18] 14.8 µM [rising, partial curve] | Potency [7] 0.105 µM [rising, full curve, poor fit] | Potency [9] 0.662 µM [rising, full curve, poor fit] | Potency [10] 18.7 µM [rising, partial curve]
inactive: Potency [1] | Potency [4] | Potency [17] | viability [6] 69.9% | Potency [8] | Potency [19] | Potency [11] | Potency [14]

C[C@]12CC[C@@H]3[C@@H](CCC4=CC(=O)CC[C@@H]43)[C@@H]1CC[C@@H]2OC(=O)CCc1ccccc1
inconclusive: Potency [1] 33.2 µM [cytotoxic, single point] | Potency [2] 0.0019 µM [rising, full curve, poor fit] | Potency [3] 20.9 µM [cytotoxic, single point] | Potency [4] 37.2 µM [cytotoxic, single point] | Potency [17] 9.35 µM [rising, partial curve, poor fit] | Potency [5] 0.105 µM [rising, full curve, poor fit] | Potency [18] 11.8 µM [rising, partial curve, poor fit] | Potency [6] 29.6 µM [cytotoxic, single point] | Potency [8] 0.0132 µM [rising, full curve, poor fit] | Potency [9] 0.059 µM [rising, full curve, poor fit] | Potency [19] 0.003 µM [rising, full curve, poor fit] | Potency [10] 0.0074 µM [rising, full curve, poor fit]
inactive: Potency [11] | Potency [12] | Potency [16]

O=S(=O)(CC1CS1)c1ccc(Oc2ccccc2)cc1 (stereo not given)
inconclusive: Potency [1] 37.2 µM [cytotoxic, single point] | Potency [2] 33.2 µM [cytotoxic, single point] | Potency [3] 0.0148 µM [cytotoxic, full curve, poor fit] | Potency [4] 20.9 µM [cytotoxic, partial curve, poor fit] | Potency [19] 20.9 µM [cytotoxic, partial curve, poor fit] | Potency [10] 9.35 µM [cytotoxic, partial curve, poor fit] | Potency [13] 29.6 µM [cytotoxic, partial curve] | Potency [14] 20.9 µM [cytotoxic, partial curve, poor fit] | Potency [16] 33.2 µM [cytotoxic, single point]
active: Potency [17] 5.26 µM | Potency [15] 26.4 µM

O=c1cccc2n1CC1CNC[C@H]2C1
active: Potency [7] 20.9 µM | Potency [16] 5.26 µM
inconclusive: Potency [3] 10.5 µM [cytotoxic, partial curve, poor fit] | Potency [17] 6.62 µM [cytotoxic, partial curve, poor fit] | Potency [5] 0.001 µM | Potency [8] 23.5 µM [cytotoxic, partial curve] | Potency [9] 20.9 µM [cytotoxic, partial curve] | Potency [10] 14.8 µM [cytotoxic, partial curve, poor fit] | viability (% of control) [11] 75% [cytotoxic]
inactive: Potency [1] | Potency [2] | viability [6] 142% | Potency [13]
